Results reported in paper PMC5431093, “A HAND to TBX5 Explains the Link Between Thalidomide and Cardiac Diseases” (Scientific Reports, 2017).
No constants are given. Whether binding was seen depends on the method and setting. Binding can be weak; no strength is given.

The chains behind the UniProt entries cited, without tags or fusion partners. Where a name states a change or a piece, a line headed by the entry shows the natural chain unless it says otherwise.
UniProt Q61039: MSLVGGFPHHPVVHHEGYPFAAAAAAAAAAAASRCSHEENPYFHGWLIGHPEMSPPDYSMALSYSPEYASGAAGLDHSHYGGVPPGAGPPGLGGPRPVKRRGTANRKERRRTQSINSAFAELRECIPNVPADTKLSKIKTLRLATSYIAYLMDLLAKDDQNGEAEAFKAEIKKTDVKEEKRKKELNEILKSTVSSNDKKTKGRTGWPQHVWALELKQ

Molecular target: T1, E47/Pan protein (UniProt P15923)
T1 sequence: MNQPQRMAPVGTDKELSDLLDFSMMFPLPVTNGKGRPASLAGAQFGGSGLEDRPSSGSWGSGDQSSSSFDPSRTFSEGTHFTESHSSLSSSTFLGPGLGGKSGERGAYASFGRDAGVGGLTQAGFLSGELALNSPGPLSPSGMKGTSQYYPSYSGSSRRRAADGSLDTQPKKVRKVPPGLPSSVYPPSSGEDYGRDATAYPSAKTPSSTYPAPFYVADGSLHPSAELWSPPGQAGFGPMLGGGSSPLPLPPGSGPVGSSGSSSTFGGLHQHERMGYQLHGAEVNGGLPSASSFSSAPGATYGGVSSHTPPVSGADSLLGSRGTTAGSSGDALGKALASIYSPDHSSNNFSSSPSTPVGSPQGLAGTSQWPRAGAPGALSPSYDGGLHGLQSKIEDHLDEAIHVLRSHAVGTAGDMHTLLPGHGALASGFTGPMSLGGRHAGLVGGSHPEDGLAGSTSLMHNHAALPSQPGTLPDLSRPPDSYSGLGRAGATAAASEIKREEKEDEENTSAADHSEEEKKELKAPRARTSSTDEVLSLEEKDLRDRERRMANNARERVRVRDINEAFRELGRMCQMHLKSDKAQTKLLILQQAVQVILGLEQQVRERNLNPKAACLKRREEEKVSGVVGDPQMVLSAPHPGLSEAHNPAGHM
Test: native gel or EMSA; nuclear extracts of HEK293 cells with HAND2 (wild type or G202V) mixed with the same amount of E47/Pan extract, radiolabelled consensus HAND binding site probe; complex seen on DNA

Flag-tagged HAND2 p.G202V variant (from UniProt Q61039)
binding: binds
